Reference: PubChem BioAssay AID1159578 (Peter MacCallum Cancer Centre, 2015)
The deposit covers about 18,000 reagents; shown is an unselected part. In the full data, about 1,030 (5.7%) are marked active. 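Inactive calls also include pools with fewer than 3300 nuclei, whose migration was not assessed.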 Raw values are not corrected between plates. Reagents against one gene are numbered here. No sequences are given here.

Test: 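Genome-wide hunt for genes controlling movement of lymphatic endothelial cells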 (primary screen)
System: human lymphatic endothelial cells
Knock-down reagent: siRNA pool against human genes, 40 nM
Time to read-out: 48 h after transfection
Read-out: 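Cells stained with dye and imaged after a scratch; covered wound area and nuclei counted, duplicates averaged, migration set against mock wells and turned into a robust z-score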
Reading the numbers: migration robust z-score: higher = faster migration into the scratch; migration relative to mock: higher = more scratch area covered than mock; nuclei per well: higher = more cells in the well
Hit rule: 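Pools averaging fewer than 3300 nuclei are never called; remaining pools count as changed when migration robust z lies outside -2 to 2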
Calls: active = migration changed; inactive = no migration change, or too few cells

Gene | reagent | migration robust z-score | migration class with cell-count check | migration relative to mock | nuclei per well, duplicate mean | activity call
ZNF484 (GeneID 83744) | 1 | -1.87 | under 3300 nuclei; migration not judged | 0.39 | 2340 | inactive
PIGR (GeneID 5284) | 1 | -2.02 | migration z below -2; enough cells | 0.42 | 4574 | active
FILIP1L (GeneID 11259) | 1 | -0.57 | migration z between -2 and 2; enough cells | 0.74 | 5648 | inactive
NFX1 (GeneID 4799) | 1 | -0.57 | migration z between -2 and 2; enough cells | 0.7 | 6392 | inactive
CNPY3 (GeneID 10695) | 1 | -0.52 | migration z between -2 and 2; enough cells | 0.75 | 5433 | inactive
ZMPSTE24 (GeneID 10269) | 1 | 0.57 | migration z between -2 and 2; enough cells | 0.92 | 5604 | inactive
ZBTB5 (GeneID 9925) | 1 | -0.28 | migration z between -2 and 2; enough cells | 0.82 | 6014 | inactive
PLCG1 (GeneID 5335) | 1 | -2.21 | migration z below -2; enough cells | 0.38 | 5078 | active
EPS8L3 (GeneID 79574) | 1 | -0.44 | migration z between -2 and 2; enough cells | 0.77 | 5484 | inactive
SPHK2 (GeneID 56848) | 1 | -1.61 | migration z between -2 and 2; enough cells | 0.5 | 4952 | inactive
CBFA2T2 (GeneID 9139) | 1 | 0.32 | migration z between -2 and 2; enough cells | 0.86 | 6616 | inactive
ANKRD36 (GeneID 375248) | 1 | 0.31 | migration z between -2 and 2; enough cells | 0.96 | 5608 | inactive
SFT2D3 (GeneID 84826) | 1 | -1.15 | migration z between -2 and 2; enough cells | 0.58 | 6032 | inactive
ACTR10 (GeneID 55860) | 1 | 0.73 | migration z between -2 and 2; enough cells | 1.08 | 5520 | inactive
FZD10 (GeneID 11211) | 1 | -0.5 | migration z between -2 and 2; enough cells | 0.71 | 4606 | inactive
RNF169 (GeneID 254225) | 1 | 1.25 | migration z between -2 and 2; enough cells | 1.04 | 6484 | inactive
RPL28 (GeneID 6158) | 1 | -1.02 | migration z between -2 and 2; enough cells | 0.61 | 5632 | inactive
BSPRY (GeneID 54836) | 1 | 0.12 | migration z between -2 and 2; enough cells | 0.91 | 5131 | inactive
OSTC (GeneID 58505) | 1 | 0.02 | migration z between -2 and 2; enough cells | 0.89 | 5518 | inactive
GFOD1 (GeneID 54438) | 1 | -0.06 | migration z between -2 and 2; enough cells | 0.8 | 4950 | inactive
GFOD1 (GeneID 54438) | 2 | 0.22 | migration z between -2 and 2; enough cells | 0.94 | 5629 | inactive
CCK (GeneID 885) | 1 | -0.18 | migration z between -2 and 2; enough cells | 0.84 | 5746 | inactive
NEIL3 (GeneID 55247) | 1 | 0.64 | migration z between -2 and 2; enough cells | 1.05 | 5905 | inactive
